# PubChem BioAssay AID602196 – INSERM | 2012
# Screen: 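Knock-downs that protect lung cancer cells from cisplatin or sensitise them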
# System: human A549 lung cancer cells
# Reagents: siRNA pair against human genes
# Duration: 48 h transfection before cisplatin; time from cisplatin to read-out not stated
# Challenge: cisplatin at a dose killing half of control-siRNA cells; exact dose and duration not given
# Detection: 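Shift in cisplatin death relative to control siRNA, from -50 (all cells die) to +50 (no cells die); siRNAs harmful on their own scored 0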
# Scale: two-siRNA summed score (-2 to +2): higher = both siRNAs protect from cisplatin killing; -2 means both sensitise; mean protection from cisplatin (shift in death) and protection from cisplatin (shift in death), siRNA C and protection from cisplatin (shift in death), siRNA D: higher = protection from cisplatin killing
# Active means: 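Each siRNA scores 0 if harmful alone by LDH or WST-1, otherwise +1 if it reduces and -1 if it increases cisplatin killing; a gene is active when both siRNAs agree (sum +2 or -2)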
# Calls: active = both siRNAs shift cisplatin killing the same way; inactive = no consistent shift, or siRNA harmful alone
# The whole screen tested about 23,000 reagents; shown is a random part of them. In the full data, 455 (2%) got an active call. 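Active includes both protection and sensitisation; some change values fall well beyond the stated -50 to +50 range.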 Unmarked entries are inactive. The record does not give: the amount of reagent.
target gene,two-siRNA summed score (-2 to +2),mean protection from cisplatin (shift in death) (%),"protection from cisplatin (shift in death), siRNA C (%)","protection from cisplatin (shift in death), siRNA D (%)"
PCLO,0,9.3,9.1,9.5
STOML1,-1,-7.7,15,-30.5
LOC402480,0,16.8,20.3,13.3
CSNK2B,0,10.5,11.6,9.4
LCE5A,0,8.2,5.5,10.9
ACVR1,1,9.7,1.2,18.1
LOC400813,0,-4,-14.6,6.6
CD101,-1,2.8,21.5,-15.9
LOC440957,0,-0.4,4.3,-5.1
LOC387750,0,0.9,8.3,-6.4
LOC340477,0,3.9,9.3,-1.6
LOC390226,0,7.3,15.1,-0.4
APOA2,0,5.2,-1.7,12.1
LOC442180,2 (active),19.1,21.2,17
ATXN3L,1,6,-0.3,12.2
FAM230I,2 (active),36.1,30,42.2
OLAH,0,3.4,1,5.8
UTP25,1,6.4,22.6,-9.7
SBNO1,0,9.4,7.7,11.2
ZNF14,0,0.9,-2,3.9
FABP2,0,3.2,4.3,2.1
KLHDC4,0,1.5,0.5,2.5
ALKBH1,0,5.9,1.3,10.4
LOC388002,0,5.4,0.7,10.2
FIGNL1,0,5.2,5.6,4.8
LOC442715,1,11,14.9,7

5 consecutive entries already listed, quoted:
target gene,two-siRNA summed score (-2 to +2),mean protection from cisplatin (shift in death) (%),"protection from cisplatin (shift in death), siRNA C (%)","protection from cisplatin (shift in death), siRNA D (%)"
OLAH,0,3.4,1,5.8
UTP25,1,6.4,22.6,-9.7
SBNO1,0,9.4,7.7,11.2
ZNF14,0,0.9,-2,3.9
FABP2,0,3.2,4.3,2.1

More entries:
target gene,two-siRNA summed score (-2 to +2),mean protection from cisplatin (shift in death) (%),"protection from cisplatin (shift in death), siRNA C (%)","protection from cisplatin (shift in death), siRNA D (%)"
ZNF708,0,-1.7,-2.5,-0.9
MAGEB4,0,13.6,6.4,20.8
CD99L2,1,8,0.5,15.5
TSHZ2,0,2,6.9,-2.8
CA5A,0,-0.3,6.4,-6.9
MNMIP1,0,-3.7,6.7,-14
AMACR,0,7.8,2.8,12.8
LYPD1,1,10.2,25.2,-4.9
NME1,0,8,12.1,3.9
WFDC11,0,6.1,8.9,3.3
CYB5D1,0,2.4,2.4,2.4
LOC100288254,1,3,-10.5,16.5
RBM12,0,0.7,4.4,-3.1
EEF2,2 (active),18.8,17.6,20
ZRANB2,-1,-5.3,4.9,-15.6
MLYCD,0,-22.6,1.7,-46.8
SLC5A6,0,3.5,8.5,-1.5
GSTA3,0,5.4,6.7,4.2
COMMD5,-1,-0.4,-15,14.3
LOC120318,0,1.6,6.9,-3.8
LOC387770,0,-4.4,-6.1,-2.8
TMEM121B,0,13.3,10.7,16
METTL22,0,13.1,1.3,24.8
LOC442620,0,4,0.5,7.4
FKBPL,0,4.1,11.3,-3.1
SRCIN1,-1,-3.1,8.9,-15
HOXA5,0,7,13.1,0.9
TBC1D16,1,13.4,20,6.8
LPO,0,-0.5,-0.1,-1
HELZ,0,5.3,5,5.5
NAA50,0,1.3,10.2,-7.6
